Counter-ions that a name gives are not always drawn. Like-named read-outs stand apart in the source and are kept apart here. Hit rate of the full screen: of about 3,300 compounds, about 60 (2%) showed an effect of 50% or more. The list shows a part of the results.
Test system: HCoV-OC43
Set-up: species or system RD; HTS, protection from HCoV-OC43 induced cell death, luminescent cell viability (CellCounting-Lite 2.0), inhibition rate
Conditions: 24 h post infection, 1 h compound pre-incubation, 10 µM, inhibitor

Q: With CC(=O)O[C@@H]1C[C@]23C4=CC[C@@]5(C)[C@H](C(=O)O)[C@@](C)([C@H](C)C(C)C)CC[C@]5(C)[C@H]4CC[C@H]2[C@@](C)(COC3O)[C@H]1O[C@@H]1O[C@H](CO)[C@@H](O)[C@H](O)[C@H]1O (some centres unmarked) [Enfumafungin] as the compound, how does the “OC43 Inhibition rate” value read?
A: 0.2%

Q: C[C@@H]1O[C@@H](O[C@H]2[C@H](O)[C@@H](O)[C@H](O[C@H]3CC[C@]4(C)[C@H]5C=C[C@]67OC[C@@]8(CCC(C)(C)C[C@H]86)[C@@H](O)C[C@@]7(C)[C@]5(C)CC[C@H]4C3(C)C)O[C@@H]2CO[C@@H]2O[C@H](CO)[C@@H](O)[C@H](O)[C@H]2O)[C@H](O)[C@H](O)[C@H]1O [Saikosaponin C] was tested. Which “OC43 Inhibition rate” value did it give?
A: 1.5%

Q: Which “OC43 Inhibition rate” value does the source give for CC(C)=CCC/C(C)=C/CC/C(C)=C/CC/C=C(\C)CC/C=C(\C)CCC=C(C)C [Squalene] here?
A: 3.4%

Q: Which “OC43 Inhibition rate” value (OC43 Inhibition rate, 24 h) does the source give for O=C(O[C@@H]1Cc2c(O)cc(O)cc2O[C@@H]1c1cc(=O)c(O)c2c(O)c(O)cc([C@H]3Oc4cc(O)cc(O)c4C[C@H]3O)c2c1)c1cc(O)c(O)c(O)c1 [Theaflavin-3'-gallate] here?
A: -5.1%

Q: With CSCC[C@H](NC(=O)[C@H](CC(C)C)NC(=O)CNC(=O)[C@H](Cc1ccccc1)NC(=O)[C@H](Cc1ccccc1)NC(=O)[C@H](CCC(N)=O)NC(=O)[C@H](CCC(N)=O)NC(=O)[C@@H]1CCCN1C(=O)[C@H](CCCCN)NC(=O)[C@@H]1CCCN1C(=O)[C@@H](N)CCCN=C(N)N)C(N)=O [Substance P] as the compound, how does the “OC43 Inhibition rate” value read?
A: -0.8%

Q: How did the “OC43 Inhibition rate” value turn out when COc1ccc(-c2coc3cc(OC)ccc3c2=O)cc1 [4',7-Dimethoxyisoflavone] was run?
A: 2.4%

Q: For COc1ccc(C(=O)O)c(O)c1 [2-Hydroxy-4-methoxybenzoic acid], which “OC43 Inhibition rate” value is on record?
A: 0.3%

Q: With C[C@H]1O[C@@H](O[C@H]2CC[C@@]3(C)[C@@H](CC[C@]4(C)[C@@H]3C=CC3=C5CC(C)(C)CC[C@]5(CO)[C@H](O)C[C@]34C)[C@]2(C)CO)[C@H](O)[C@@H](O[C@@H]2O[C@H](CO)[C@@H](O)[C@H](O)[C@H]2O)[C@H]1O [Saikosaponin B2] as the compound, how does the “OC43 Inhibition rate” value read?
A: 0.7%

Q: How did the “OC43 Inhibition rate” value turn out when NCCCNCCCCNCCCN [Spermine] was run?
A: 2%

Q: Which “OC43 Inhibition rate” value (OC43 Inhibition rate, 24 h) does the source give for CC1(C)C=Cc2c(ccc(C(=O)/C=C/c3ccc(O)cc3)c2O)O1 [Isobavachromene] here?
A: 27.5%

Q: Which “OC43 Inhibition rate” value does the source give for CC(C)CCC[C@@H](C)[C@H]1CC[C@H]2[C@@H]3CC(=O)[C@H]4C[C@@H](O)CC[C@]4(C)[C@H]3CC[C@]12C [6-Ketocholestanol] here?
A: 13.8%

Q: With CN1c2ccccc2C(=O)N2CCc3c([nH]c4ccccc34)[C@@H]21 [Evodiamine] as the compound, how does the “OC43 Inhibition rate” value read?
A: 2%

Q: With COc1ccc(-c2cc(=O)c3c(O)cc(O[C@@H]4O[C@H](CO)[C@@H](O)[C@H](O)[C@H]4O)cc3o2)cc1O [Diosmetin-7-O-β-D-glucopyranoside] as the compound, how does the “OC43 Inhibition rate” value read?
A: -0.5%

Q: Which “OC43 Inhibition rate” value does the source give for CCCCCCCCCCCCCCCCCCCCCCO [1-Docosanol] here?
A: -2.1%

Q: For COc1ccc(O)cc1 [Mequinol], which “OC43 Inhibition rate” value is on record?
A: -0.4%

Q: For CC(C)=CCC[C@](C)(O[C@@H]1O[C@H](CO[C@@H]2OC[C@H](O)[C@H](O)[C@H]2O)[C@@H](O)[C@H](O)[C@H]1O)[C@H]1CC[C@]2(C)[C@@H]1[C@H](O)C[C@@H]1[C@@]3(C)CC[C@H](O)C(C)(C)[C@@H]3[C@@H](O)C[C@]12C [Ginsenoside F3], which “OC43 Inhibition rate” value is on record?
A: 2.3%

Q: For C=C1C[C@@]23CC[C@H]4[C@@](C)(CCC[C@@]4(C)C(=O)O[C@@H]4O[C@H](CO)[C@@H](O)[C@H](O[C@@H]5O[C@H](CO)[C@@H](O)[C@H](O)[C@H]5O)[C@H]4O[C@@H]4O[C@H](CO)[C@@H](O)[C@H](O)[C@H]4O)[C@@H]2CC[C@]1(O[C@@H]1O[C@H](CO)[C@@H](O)[C@H](O[C@@H]2O[C@H](CO)[C@@H](O)[C@H](O)[C@H]2O)[C@H]1O[C@@H]1O[C@H](CO)[C@@H](O)[C@H](O)[C@H]1O)C3 [Rebaudioside M], which “OC43 Inhibition rate” value is on record?
A: 0.5%

Q: How did the “OC43 Inhibition rate” value turn out when O=c1ccoc2cc(O)ccc12 [7-Hydroxy-4H-chromen-4-one] was run?
A: 0%

Q: How did the “OC43 Inhibition rate” value turn out when C[C@@H]1O[C@@H](O[C@@H]2C(=O)c3c(O)cc(O)cc3O[C@@H]2c2ccc(O)c(O)c2)[C@H](O)[C@H](O)[C@H]1O [Isoastilbin] was run?
A: 4.2%

Q: Which “OC43 Inhibition rate” value does the source give for CC1=C(C(=O)Nc2ccccc2)SCCO1 [Carboxin] here?
A: -1.9%

Q: How did the “OC43 Inhibition rate” value turn out when CC1(C)O[C@H]2CC(=O)OC[C@]23[C@H]2CC[C@@]4(C)[C@H](c5ccoc5)OC(=O)[C@H]5O[C@]54[C@]2(C)C(=O)C[C@@H]13 [Limonin] was run?
A: -0.9%

Q: For COc1ccc(C(C)=O)c(O[C@@H]2O[C@H](CO[C@@H]3OC[C@H](O)[C@H](O)[C@H]3O)[C@@H](O)[C@H](O)[C@H]2O)c1 [Apiopaeonoside], which “OC43 Inhibition rate” value is on record?
A: -0.7%

Q: Which “OC43 Inhibition rate” value does the source give for CC1=CCC(=O)O1 [α-Angelica lactone] here?
A: -1%

Q: O=C(O)c1cn[nH]c1 [4-Carboxypyrazole] was tested. Which “OC43 Inhibition rate” value did it give?
A: 0.1%

Q: With OC[C@H]1NC[C@H](O)[C@@H](O)[C@@H]1O [1-Deoxynojirimycin] as the compound, how does the “OC43 Inhibition rate” value read?
A: -2.5%

Q: With C=C(C)[C@@H](O)COc1c2ccoc2cc2oc(=O)ccc12 [Pangelin] as the compound, how does the “OC43 Inhibition rate” value read?
A: 2.9%

Q: For COC(=O)C1=CO[C@@H](O[C@@H]2O[C@H](CO)[C@@H](O)[C@H](O)[C@H]2O)[C@@H]2C(CO)=CC[C@H]12 [Geniposide], which “OC43 Inhibition rate” value is on record?
A: 0%

Q: How did the “OC43 Inhibition rate” value turn out when CC(=O)OC/C=C(\C)CCC=C(C)C [Geranyl acetate] was run?
A: -0.3%

Q: Which “OC43 Inhibition rate” value does the source give for C[C@H](CCC(=O)NCCS(=O)(=O)O)[C@H]1CC[C@H]2[C@@H]3C[C@H](O)[C@@H]4C[C@H](O)CC[C@]4(C)[C@H]3CC[C@]12C [Taurohyodeoxycholic acid] here?
A: -1.1%

Q: Which “OC43 Inhibition rate” value does the source give for C[C@H](CCCC(C)(C)O)[C@H]1CC[C@H]2[C@@H]3CC=C4C[C@@H](O)CC[C@]4(C)[C@H]3CC[C@]12C [25-Hydroxycholesterol] here?
A: -3.3%

Q: With CC(C)CCC[C@@H](C)[C@H]1CC[C@H]2[C@@H]3[C@H](O)C=C4C[C@@H](O)CC[C@]4(C)[C@H]3CC[C@]12C [7α-Hydroxycholesterol] as the compound, how does the “OC43 Inhibition rate” value read?
A: 8.7%

Q: CC(=O)N[C@@H](Cc1cnc[nH]1)C(=O)O [N-Acetyl-L-histidine (monohydrate)] was tested. Which “OC43 Inhibition rate” value did it give?
A: 2.4%

Q: With O=C1C[C@@H](c2ccc(O)c(O)c2)Oc2cc(O)cc(O)c21 [Eriodictyol] as the compound, how does the “OC43 Inhibition rate” value read?
A: 0.2%

Q: Which “OC43 Inhibition rate” value does the source give for COc1cc(/C=C/C(=O)O[C@H]2[C@H](O)[C@@H](CO)O[C@@]2(CO)O[C@H]2O[C@H](CO)[C@@H](O)[C@H](O)[C@H]2O)ccc1O [Sibiricose A5] here?
A: -0.2%

Q: How did the “OC43 Inhibition rate” value turn out when CN[C@@H]1[C@H](O)[C@H](NC)[C@H]2O[C@@]3(O)C(=O)C[C@@H](C)O[C@H]3O[C@@H]2[C@H]1O [Spectinomycin (dihydrochloride)] was run?
A: 20.6%

Q: How did the “OC43 Inhibition rate” value turn out when C[C@@H]1C[C@@H]([C@@H](O)C(C)(C)O)O[C@H]2C[C@@]3(C)C(=C12)C[C@H](O)[C@H]1[C@@]2(C)CCC(=O)C(C)(C)[C@@H]2CC[C@@]13C [Alisol F] was run?
A: -0.1%

Q: Which “OC43 Inhibition rate” value does the source give for C[C@H](CC[C@@H](O[C@@H]1O[C@H](CO)[C@@H](O)[C@H](O)[C@H]1O[C@@H]1O[C@H](CO)[C@@H](O)[C@H](O)[C@H]1O)C(C)(C)O)[C@H]1CC[C@@]2(C)[C@H]3CC=C4[C@@H](CC[C@H](O[C@@H]5O[C@H](CO[C@@H]6O[C@H](CO)[C@@H](O)[C@H](O)[C@H]6O)[C@@H](O)[C@H](O)[C@H]5O)C4(C)C)[C@]3(C)[C@H](O)C[C@]12C [Mogroside IV] here?
A: -0.6%

Q: Which “OC43 Inhibition rate” value does the source give for CC1(C)[C@@H](O[C@@H]2O[C@H](C(=O)O)[C@@H](O)[C@H](O)[C@H]2O[C@@H]2O[C@H](C(=O)O)[C@@H](O)[C@H](O)[C@H]2O)CC[C@]2(C)[C@H]3C(=O)C=C4[C@@H]5C[C@](C)(C(=O)O)CC[C@]5(C)CC[C@@]4(C)[C@]3(C)CC[C@@H]12 [Licorice-saponin H2] here?
A: 0.5%

Q: C/C(=C\CO)CCC[C@H](C)CCC[C@H](C)CCCC(C)C [Phytol] was tested. Which “OC43 Inhibition rate” value did it give?
A: 0%

Q: For O=c1[nH]c2ccccc2c(-c2cccc(O)c2)c1O [Viridicatol], which “OC43 Inhibition rate” value is on record?
A: 1%

Q: O=c1c(-c2ccc(O)cc2)coc2c([C@@H]3O[C@H](CO[C@@H]4OC[C@@H](O)[C@H](O)[C@H]4O)[C@@H](O)[C@H](O)[C@H]3O)c(O)ccc12 [Puerarin 6''-O-Xyloside] was tested. Which “OC43 Inhibition rate” value did it give?
A: -0.1%

Q: CCc1c2c(nc3ccc(O)cc13)-c1cc3c(c(=O)n1C2)COC(=O)[C@]3(O)CC [SN-38] was tested. Which “OC43 Inhibition rate” value did it give?
A: -4.8%

Q: How did the “OC43 Inhibition rate” value turn out when CC(=O)OC/C1=C/C[C@H]2[C@@H](/C=C(\C)C(=O)[C@@]3(OC(C)=O)C[C@H](C)[C@H](OC(=O)c4ccccc4)[C@@H]3[C@H]1OC(C)=O)C2(C)C [Euphorbia factor L7b] was run?
A: 8.6%

Q: CCCCCCO [1-Hexanol] was tested. Which “OC43 Inhibition rate” value did it give?
A: 2.6%

Q: For C/C(=C\CNc1ncnc2nc[nH]c12)CO [trans-Zeatin], which “OC43 Inhibition rate” value is on record?
A: -2.8%

Q: Which “OC43 Inhibition rate” value does the source give for NC(=O)CCC(N)C(=O)O (racemic) [DL-Glutamine] here?
A: 3.4%

Q: Which “OC43 Inhibition rate” value does the source give for CC(=O)c1ccccc1O [2'-Hydroxyacetophenone] here?
A: 0.1%

Q: For Nc1ncnc2c1ncn2[C@H]1C[C@H](O)[C@@H](CO)O1 [2'-Deoxyadenosine], which “OC43 Inhibition rate” value (OC43 Inhibition rate, 24 h) is on record?
A: -0.2%

Q: For COc1ccc(-c2cc(=O)c3c(O)c(OC)c(O)c(OC)c3o2)cc1 [Nevadensin], which “OC43 Inhibition rate” value is on record?
A: 0.8%

Q: Which “OC43 Inhibition rate” value does the source give for COC(=O)[C@]1(C)CC[C@]2(C(=O)O[C@@H]3O[C@H](CO)[C@@H](O)[C@H](O)[C@H]3O)CC[C@]3(C)C(=CC[C@@H]4[C@@]5(C)C[C@H](O)[C@H](O[C@@H]6OC[C@@H](O[C@@H]7O[C@H](CO)[C@@H](O)[C@H](O)[C@H]7O)[C@H](O)[C@H]6O)[C@@](C)(CO)C5CC[C@]43C)[C@H]2C1 (some centres unmarked) [Esculentoside H] here?
A: 0%

Reference: article PMC12431657, “Discovery and mechanistic insights of dibenzoylmethane as a broad spectrum inhibitor of coronavirus” (PLOS Pathogens, 2025)
